Among all 320,000 compounds or so, about 22,000 (6.9%) were called active. The shares of active, inactive and inconclusive entries below differ from those in the screen. The call rests on the fitted dose curve; in most records, active means well fitted inhibition curve with a large enough effect; inconclusive means small, poorly fitted or top-dose-only effect, or another doubt; inactive means no such curve, though single readings can be large or run the other way. Potencies of inconclusive entries are doubtful fits and often do not repeat.
Assay: Primary qHTS for delayed death inhibitors of the malarial parasite plastid, 96 hour incubation
Conditions: P. falciparum luciferase reporter growth; series mostly up to 28.7 µM; activity change, negative = inhibition: at the top concentration
Outline: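 Cell-based qHTS: luciferase-tagged P. falciparum in erythrocytes (2% hematocrit, 0.05% parasitemia final) incubated with compounds for 96 hours, 37 C, 5% CO2; luciferase detection reagent then added and luminescence measured.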
On the % scale 0 is the no-effect control and ±100 the full control effect; potency means the concentration at half of the fitted maximal effect.

SMILES | activity change, negative = inhibition | Potency
O=C(O)c1cc(-c2ccc(/C=N/NC(=S)Nc3ccccc3)o2)ccc1Cl | inactive: 50.4% | –
O=C(CCCN1C(=O)/C(=C/c2ccccc2)SC1=S)NCCCn1ccnc1 | – | active: 9.28 µM
COc1ccc(CNC(=O)C2CCC(=O)N(CCCN3CCCC3=O)C2)cc1 (configuration not stated) | – | inconclusive: 18.5 µM [inhibitor, single point]
CCN(CC)c1ccc(/C=N/NC(=O)Cc2nnc(NC(=O)Nc3ccccc3)s2)cc1 | inactive: 78% | –
CC(=C/c1ccccc1)/C=N/n1c(-c2ccncc2)n[nH]c1=S | – | inconclusive: 10.4 µM [inhibitor, single point]
O=C(O)c1cnn(-c2nc(-c3ccc(Cl)c(Cl)c3)cs2)c1C(F)(F)F | – | inconclusive: 18.5 µM [inhibitor, single point]
O=C1c2cccc3cccc(c23)C(=O)N1CCN1CCN(CC(O)COCc2ccc(Cl)cc2)CC1 (configuration not stated) | – | inconclusive: 5.22 µM [inhibitor, partial curve, poor fit]
CC(=O)Nc1ccc(NC(=O)CSc2nc3nc(C)cc(C)c3c(=O)[nH]2)cc1 | – | inconclusive: 18.5 µM [inhibitor, single point]
COc1cccc(-c2nc(-c3ccc4c(c3)NC(=O)CO4)cs2)c1 | inactive: 54.9% | –
CCOc1cc(N2CCOCC2)c(OCC)cc1NC(=O)COC(=O)c1ccccc1C | – | inconclusive: 10.4 µM [inhibitor, partial curve]
CC(=O)OCC(=O)[C@@]12OC3(CCCC3)O[C@@H]1C[C@H]1[C@@H]3CCC4=CC(=O)C=C[C@]4(C)[C@@]3(F)[C@@H](O)C[C@@]12C | – | active: 10.4 µM
c1ccc(-c2nnc(CSc3nncs3)o2)cc1 | inactive: 67.6% | –
CCOc1cccc(CN2CCC(n3nccc3NC(=O)CCCc3ccccc3)CC2)c1 | – | inconclusive: 18.5 µM [inhibitor, single point]
COc1ccc(OCCSc2nnc(-c3cccnc3)n2N)cc1 | inactive: 9.57% | –
NC(=O)[C@@H]1CCCN1Cc1nc(Cc2ccccc2Cl)no1 | – | active: 3.7 µM
CCC(=O)Nc1cc(C(=O)NCC2CCCN2CC)c(OC)cc1N(C)C (configuration not stated) | – | inconclusive: 0.415 µM [inhibitor, full curve, poor fit]
COc1ccccc1N(C(=O)c1ccco1)C(C(=O)NC1CCCC1)c1cccnc1 (configuration not stated) | – | inconclusive: 13.1 µM [inhibitor, single point]
O=C(COc1ccc([N+](=O)[O-])cc1)N(C1CCCCC1)C1CCS(=O)(=O)C1 (configuration not stated) | – | inconclusive: 4.65 µM [inhibitor, partial curve, poor fit]
O=C(CSc1nc2ccccc2s1)NCc1cc([N+](=O)[O-])ccc1O | – | inconclusive: 10.4 µM [inhibitor, single point]
COC(=O)C1=C(c2ccc(F)cc2F)C[C@@H]2CC[C@H]1N2C(=O)NC1Cc2ccccc2C1 | – | inconclusive: 14.7 µM [inhibitor, single point]
C=CCNc1nnnc2c1sc1nc(N3CCOCC3)c3c(c12)CCCC3 | – | inconclusive: 1.47 µM [inhibitor, full curve, poor fit]
Cn1c(=O)c(NCCc2ccccc2)c2c3c(cccc31)C(=O)c1ccccc1-2 | – | active: 9.28 µM
CCN1CCN(c2c(S(=O)(=O)c3ccc(C)c(C)c3)cnc3ccc(F)cc23)CC1 | – | active: 2.33 µM

A second format for two compounds above:
SMILES	activity change, negative = inhibition	Potency
COc1cccc(-c2nc(-c3ccc4c(c3)NC(=O)CO4)cs2)c1	inactive: 54.9%	–
CCOc1cc(N2CCOCC2)c(OCC)cc1NC(=O)COC(=O)c1ccccc1C	–	inconclusive: 10.4 µM [inhibitor, partial curve]

Remaining list, next part:

SMILES | activity change, negative = inhibition | Potency
COc1ccc(/C=N/n2cc(-c3ccccc3)nc2N)cc1 | – | active: 10.4 µM
COc1cccc(-c2csc(N3CCN(C(=S)Nc4ccc(Cl)cc4)CC3)n2)c1 | – | active: 10.4 µM
N#Cc1c(-c2ccccc2)[nH]c(=S)[nH]c1=O | – | inconclusive: 0.0738 µM [inhibitor, full curve, poor fit]
CC(=O)c1ccc(Nc2cc(C)nc3ccc(C)cc23)cc1 | inactive: 3.54% | –
O=C(CSc1nnc(-c2ccccc2)n1Cc1ccco1)Nc1ccc(S(=O)(=O)N2CCCC2)cc1 | – | inconclusive: 11.7 µM [inhibitor, single point]
CN(C)c1ccc(CNC(=O)c2cc(S(=O)(=O)N3CCCC3)cn2C)cc1 | – | inconclusive: 10.4 µM [inhibitor, single point]
O=c1c2cc3c(cc2[nH]c(=S)n1C1CCN(Cc2ccccc2)CC1)OCO3 | – | inconclusive: 18.5 µM [inhibitor, single point]
CC(C)(C)c1ccc(C(=O)O[C@H]2[C@H](Cc3ccccc3)NS(=O)(=O)[C@H]3C[C@@H]4C=C[C@]23O4)cc1 | – | active: 11.7 µM
O=C(CSc1nnc(C2COc3ccccc3O2)o1)N1CCCC1 (configuration not stated) | – | inconclusive: 11.7 µM [inhibitor, partial curve]
O=C(c1ccc2nc(-c3ccccc3)c(-c3ccccc3)nc2c1)N1CCCCC1 | inactive: 3.37% | –
O=C(O)C1C2C=CC(C2)C1C(=O)NCc1ccc2c(c1)OCO2 (configuration not stated) | – | inconclusive: 1.17 µM [inhibitor, partial curve]
CN(C)/C=C/C=C1C(=O)CCCC1=O | – | inconclusive: 20.8 µM [inhibitor, partial curve, poor fit]
O=C(Nc1ccc(C(=O)N2CCOCC2)cc1)Nc1cccc(Cl)c1 | – | inconclusive: 18.5 µM [inhibitor, single point]
O=C(CN1C(=O)/C(=C\c2ccccc2Br)Oc2ccccc21)NCCCN1CCOCC1 | – | active: 2.33 µM
CCSc1nnc(NC(=O)C2CCN(S(=O)(=O)c3c(C)c(C)cc(C)c3C)CC2)s1 | – | inconclusive: 14.7 µM [inhibitor, single point]
Cc1csc(CN(C)C(=O)CC2C(=O)NCCN2Cc2ccc(F)c(F)c2)n1 (configuration not stated) | – | active: 13.1 µM
O=C(COC(=O)C1CC(=O)N(Cc2ccccc2)C1)Nc1ccccc1F (configuration not stated) | – | inconclusive: 6.57 µM [inhibitor, partial curve, poor fit]
Clc1cccc(-c2ccc3ncnc(NCc4ccc5c(c4)OCO5)c3c2)c1 | – | active: 1.47 µM
Cc1ccc(-n2c(SCC(=O)Nc3cccc(C)c3)nc3c(oc4ccccc43)c2=O)cc1 | – | inconclusive: 18.5 µM [inhibitor, single point]
CC1CC(C)CN(C(=O)CN2CCN(Cc3ccc(Cl)cc3)C2=O)C1 (configuration not stated) | – | inconclusive: 18.5 µM [inhibitor, single point]
COCCNC(=O)CC(=O)N/N=C/c1ccc(C(=O)OC)cc1 | – | inconclusive: 5.22 µM [inhibitor, partial curve]
CN(C)CCOC(=O)CC12CC3CC(C1)CC(CC(=O)OCCN(C)C)(C3)C2 | – | inconclusive: 0.0026 µM [inhibitor, full curve, poor fit]
Cc1cc(=O)oc2ccc(OCC(=O)N3CCC(C)CC3)cc12 | inactive: -0.349% | –

SMILES | activity change, negative = inhibition | Potency
COc1ccc2nc(N/C(N)=N/C(=S)Nc3ccc(C)c(C)c3)nc(C)c2c1 | – | inconclusive: 18.5 µM [inhibitor, single point]
Cn1nnc2c[n+](CC(=O)c3ccc4ccccc4c3)cc(Br)c21 | – | inconclusive: 2.33 µM [inhibitor, full curve]
Cc1cc([N+](=O)[O-])nn1CCCC(=O)NC1CCCCC1 | inactive: 9.81% | –
CCS(=O)(=O)N1CCc2cc(OC)c(OC)cc2C1 | – | inconclusive: 10.4 µM [inhibitor, single point]
Cc1ccccc1C(=O)NCCN1CCOCC1 | – | inconclusive: 11.7 µM [inhibitor, partial curve, poor fit]
FC(F)(F)c1nc2ncc(Cl)cc2[nH]1 | – | inconclusive: 10.4 µM [inhibitor, single point]
O=S(=O)(c1ccccc1C(F)(F)F)N1CCOCC1 | – | inconclusive: 6.57 µM [inhibitor, partial curve]
Cc1ccc(NC(=O)c2ccc(N3CCOCC3)c([N+](=O)[O-])c2)cc1S(=O)(=O)N1CCOCC1 | – | inconclusive: 8.28 µM [inhibitor, partial curve]
Cc1nc(Sc2nnnn2-c2ccccc2)c(C#N)c(C)c1C | – | inconclusive: 13.1 µM [inhibitor, single point]
CCCCC(NC(=O)c1ccc(C#N)cc1)C(=O)NCCC (configuration not stated) | inactive: 37.7% | –
O=C(Oc1ccc(Br)cc1)c1cncc(Br)c1 | – | inconclusive: 5.22 µM [inhibitor, partial curve, poor fit]
O=C(NC(=O)N1CCN(C(c2ccccc2)c2ccccc2)CC1)c1ccccc1 | – | inconclusive: 3.29 µM [inhibitor, partial curve]
COc1ccccc1OCc1ccc(C(=O)NCC2CCCO2)o1 (configuration not stated) | inactive: -31.2% | –
O=C(Nc1ncccn1)c1ccc(Cl)c([N+](=O)[O-])c1 | inactive: 8.39% | –
O=C(Cn1cc(/C=N/NC(=O)c2cccc3ccccc23)c2ccccc21)Nc1ccc(F)cc1 | – | inconclusive: 9.28 µM [inhibitor, partial curve, poor fit]
CC(C)(C)n1nc2c(c1NC(=O)c1ccc(S(=O)(=O)N3CCCCC3)cc1)CS(=O)C2 (configuration not stated) | – | inconclusive: 18.5 µM [inhibitor, single point]
O=S(=O)(c1ccc(Cl)c(NC(=S)N/N=C/c2c(F)cccc2F)c1)N1CCOCC1 | – | inconclusive: 3.29 µM [inhibitor, partial curve, poor fit]
O=C(Nc1ccccc1Br)C1CCCN1S(=O)(=O)c1cccc2nsnc12 (configuration not stated) | – | inconclusive: 18.5 µM [inhibitor, single point]
CCn1nc(C)c(NC(=O)/C=C/c2cnn(C)c2)c1C | inactive: 44.4% | –
CCC(=O)/C(=C(/O)c1ccccc1)c1nc2ccccc2[nH]1 | – | inconclusive: 7.38 µM [inhibitor, partial curve, poor fit]
C=C1C(=O)[C@@]23[C@H](O)C[C@@H]4C(C)(C)CC[C@H](O)[C@@]4(C)[C@@H]2CC[C@@H]1[C@H]3O | – | inconclusive: 4.15 µM [inhibitor, single point]

Structural class: those above with a Cl atom.
SMILES | activity change, negative = inhibition | Potency
O=C(O)c1cc(-c2ccc(/C=N/NC(=S)Nc3ccccc3)o2)ccc1Cl | inactive: 50.4% | –
O=C(O)c1cnn(-c2nc(-c3ccc(Cl)c(Cl)c3)cs2)c1C(F)(F)F | – | inconclusive: 18.5 µM [inhibitor, single point]
O=C1c2cccc3cccc(c23)C(=O)N1CCN1CCN(CC(O)COCc2ccc(Cl)cc2)CC1 (configuration not stated) | – | inconclusive: 5.22 µM [inhibitor, partial curve, poor fit]
NC(=O)[C@@H]1CCCN1Cc1nc(Cc2ccccc2Cl)no1 | – | active: 3.7 µM
COc1cccc(-c2csc(N3CCN(C(=S)Nc4ccc(Cl)cc4)CC3)n2)c1 | – | active: 10.4 µM
O=C(Nc1ccc(C(=O)N2CCOCC2)cc1)Nc1cccc(Cl)c1 | – | inconclusive: 18.5 µM [inhibitor, single point]
Clc1cccc(-c2ccc3ncnc(NCc4ccc5c(c4)OCO5)c3c2)c1 | – | active: 1.47 µM
CC1CC(C)CN(C(=O)CN2CCN(Cc3ccc(Cl)cc3)C2=O)C1 (configuration not stated) | – | inconclusive: 18.5 µM [inhibitor, single point]
FC(F)(F)c1nc2ncc(Cl)cc2[nH]1 | – | inconclusive: 10.4 µM [inhibitor, single point]
O=C(Nc1ncccn1)c1ccc(Cl)c([N+](=O)[O-])c1 | inactive: 8.39% | –
O=S(=O)(c1ccc(Cl)c(NC(=S)N/N=C/c2c(F)cccc2F)c1)N1CCOCC1 | – | inconclusive: 3.29 µM [inhibitor, partial curve, poor fit]
